Melanoma cell counts after drug treatment

From a melanoma drug combination screen (doi:10.1371/journal.pone.0140310); values rounded.

Compounds and concentrations:
SNS-032: CC(C)(C)c1cnc(CSc2cnc(NC(=O)C3CCNCC3)s2)o1 at 0.01 µM
perifosine: CCCCCCCCCCCCCCCCCCOP(=O)([O-])OC1CC[N+](C)(C)CC1 at 0.4 µM
darinaparsin: C[As](C)SC[C@H](NC(=O)CC[C@H](N)C(=O)O)C(=O)NCC(=O)O at 0.4 µM
OSU-03012: NCC(=O)Nc1ccc(-n2nc(C(F)(F)F)cc2-c2ccc3c(ccc4ccccc43)c2)cc1 at 1 µM
ZM336372: Cc1ccc(NC(=O)c2cccc(N(C)C)c2)cc1NC(=O)c1ccc(O)cc1 at 2 µM
CHIR-265: Cn1c(Nc2ccc(C(F)(F)F)cc2)nc2cc(Oc3ccnc(-c4ncc(C(F)(F)F)[nH]4)c3)ccc21 at 0.08 µM
AZD7762: NC(=O)Nc1cc(-c2cccc(F)c2)sc1C(=O)N[C@H]1CCCNC1 at 0.02 µM
vismodegib: CS(=O)(=O)c1ccc(C(=O)Nc2ccc(Cl)c(-c3ccccn3)c2)c(Cl)c1 at 1 µM
RKI-983: C[C@@H](N)c1ccc(C(=O)Nc2ccnc3[nH]ccc23)cc1 at 0.4 µM
MK-1775: C=CCn1c(=O)c2cnc(Nc3ccc(N4CCN(C)CC4)cc3)nc2n1-c1cccc(C(C)(C)O)n1 at 0.02 µM
SU6656: CN(C)S(=O)(=O)c1ccc2c(c1)/C(=C/c1cc3c([nH]1)CCCC3)C(=O)N2 at 0.4 µM

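The test systems are human melanoma cell lines, treated with two drugs together for 72 h and then stained and imaged. The read-out is cell count (nuclei) in % of the DMSO control; lower values mean stronger growth inhibition or killing. Concentrations were fixed for each drug; these are the lower of two levels, a fifth of the higher. No replicate spread is given; individual values may be noisy.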 An unselected part of the screen is shown.

Combination	C32	A375	A101D	A2058
SU6656 + vismodegib	91.1	113	71.6	90.9
vismodegib + MK-1775	97.6	49.9	88.1	104
ZM336372 + darinaparsin	105	89.0	93.2	97.9
SNS-032 + CHIR-265	84.4	59.5	59.5	89.2
OSU-03012 + perifosine	96.6	15.1	119	99.5
SU6656 + darinaparsin	85.3	103	81.4	95.6
darinaparsin + AZD7762	114	61.6	90.6	125
SU6656 + perifosine	90.8	102	83.1	99.4
CHIR-265 + ZM336372	85.2	50.5	58.4	89.0
vismodegib + SNS-032	87.4	120	100	98.4
SNS-032 + perifosine	94.2	12.7	76.5	64.8
SNS-032 + darinaparsin	78.6	85.8	94.6	93.7
OSU-03012 + CHIR-265	88.2	14.5	54.9	86.6
OSU-03012 + darinaparsin	93.4	16.3	101	103
AZD7762 + CHIR-265	82.5	36.4	56.4	102
AZD7762 + RKI-983	86.6	55.5	74.5	99.4
SU6656 + AZD7762	27.5	51.0	62.1	102
SU6656 + RKI-983	70.2	90.8	69.7	66.4
CHIR-265 + SU6656	70.6	71.6	57.0	77.7
RKI-983 + OSU-03012	92.8	11.0	102	77.8
SNS-032 + MK-1775	90.9	58.1	73.6	94.7
vismodegib + OSU-03012	108	14.4	91.8	92.6
RKI-983 + ZM336372	90.0	73.5	91.1	85.6
OSU-03012 + SU6656	91.0	18.2	85.9	89.1
perifosine + ZM336372	94.7	99.0	84.4	110
SNS-032 + ZM336372	96.5	103	93.0	99.9
SU6656 + SNS-032	89.2	92.1	75.1	93.5
vismodegib + ZM336372	85.3	106	104	101
RKI-983 + MK-1775	80.1	81.3	77.9	85.2
OSU-03012 + MK-1775	95.1	11.0	78.2	102
vismodegib + AZD7762	98.0	51.9	91.3	109
MK-1775 + perifosine	95.2	31.1	67.7	84.1
AZD7762 + perifosine	114	50.9	118	123
MK-1775 + CHIR-265	63.7	49.7	49.6	71.3

3 of the entries, repeated:

| Combination | C32 | A375 | A101D | A2058 |
|---|---|---|---|---|
| SU6656 + perifosine | 90.8 | 102 | 83.1 | 99.4 |
| CHIR-265 + ZM336372 | 85.2 | 50.5 | 58.4 | 89.0 |
| vismodegib + OSU-03012 | 108 | 14.4 | 91.8 | 92.6 |